The assay in a line: qHTS Assay to Find Inhibitors of Chronic Active B-Cell Receptor Signaling. The settings on record: ABC-DLBCL IkBa-CBG/CBR reporter, luminescence ratio (green luciferase fused to IkBa over red control in TMD8 lymphoma cells), 4 h. In outline:
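Cell line TMD8 (human ABC DLBCL), stably expressing tet-inducible CBG68-IkBa fusion and CBR; IMDM/0.5% FBS; cpd up to 46 uM; dox induction, 4 h, 37C/5% CO2; dual luminescence; green/red ratio; MG132 control.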

The mark [1] stands for this setting: measured here: CBR red luminescence, cell number.
The mark [2] stands for this setting: measured here: IkBa-CBG green luminescence.

Some of the results follow. These are further read-outs of the screen, such as a control signal, another cell line or another target. No call is given for them. The list favours compounds with an active or inconclusive main result. The note in brackets gives the kind of curve behind each potency; many fits are weak.

The results in this text go back to PubChem BioAssay AID493014 (National Center for Advancing Translational Sciences (NCATS), 2011).

One may read the AC50 as the midpoint of the concentration-response curve, whichever way the signal moves.

Regarding `Fc1ccccc1-n1c(-c2ccc3ccccc3n2)n[nH]c1=S`, the AC50 under setting [1] is 2.82 µM [falling, full curve, poor fit].
On the same count and under the same terms, under `CC[C@@H](C)[C@H](N)C(=O)NC[C@H]1O[C@@H](n2cnc3c(N)ncnc32)[C@H](O)[C@@H]1O` stands 16.4 µM [rising, partial curve, poor fit].
On the same count and under the same terms, under `CCC(C)NC(=O)CNC(=O)Cn1c(C)cc2ccccc2c1=O` (configuration not stated) stands 2.31 µM [rising, partial curve, poor fit]; under `C[C@@H](CSc1ccc(Br)cc1)CN1CC[C@H](NC(=O)OCc2ccccc2)CCC1=O`, 29.1 µM [falling, single point].
For the compound `O=C(NC(=S)N1CCN(c2nc(-c3ccccc3)cs2)CC1)c1cncc(Br)c1`, the AC50 under setting [1] is 12.6 µM [rising, partial curve, poor fit] and the AC50 under setting [2] was 25.1 µM [falling, single point].
Turning to `Cc1c(Oc2ccc(C(F)(F)F)cc2[N+](=O)[O-])ccc2c3c(c(=O)oc12)CCC3`, the AC50 under setting [1] is 0.0651 µM [rising, full curve].
As for `CC(=O)N(/N=C1\Sc2ccccc2C1=O)c1ccccc1C`, under setting [1], the AC50 is 1.12 µM [falling, full curve].
Consider `O=C(c1ccc(Oc2ccc([N+](=O)[O-])cc2)cc1)N1CCCCCC1`, for which, under setting [1], the AC50 was 14.1 µM [falling, partial curve, poor fit].
Still for that read-out and setting: under `O=C(Nc1nc(-c2ccc(S(=O)(=O)N3CCOCC3)cc2)cs1)c1ccccc1` stands 3.16 µM [falling, partial curve, poor fit]; under `OCCN1CCN(C(=S)c2ccc(Cl)c(Cl)c2)CC1`, 25.9 µM [falling, single point]; under `Cc1ccc2c(COC(=O)c3ccccc3F)cc(=O)oc2c1`, 0.224 µM [rising, full curve].
As for `Cc1ccc(Nc2nnc(SC(C)C(=O)Nc3c(C)n(C)n(-c4ccccc4)c3=O)s2)cc1` (configuration not stated), the AC50 under setting [1] is 1.16 µM [falling, full curve].
The same measure, in the same setting: under `CCCCC(=O)Nc1ccc(NC(=O)C2CC2)cn1` stands 1.41 µM [rising, full curve, poor fit].
`CC(C)(C)c1ccc(/C=N/NC(=O)c2ccccn2)cc1`: under setting [1], the AC50 is 11.2 µM [falling, partial curve, poor fit].
Take `CCNC(=O)NC(=O)C(C)OC(=O)CCCSc1nc2ccccc2s1` (configuration not stated): the AC50 by setting is: under setting [1], 8.2 µM [falling, partial curve]; under setting [2], 0.103 µM [rising, partial curve, poor fit].
On to `CC(C)N(Cc1nc(-c2ccccc2)no1)C(=O)COc1ccccc1`, for which the half-maximal activity concentration (AC50) under setting [1] was 2.91 µM [rising, full curve, poor fit].
Consider `O=C(Nc1ccn(Cc2ccccc2)n1)c1ccc2c(c1)OCO2`, for which the half-maximal activity concentration (AC50) under setting [1] was 10 µM [falling, partial curve, poor fit].
Take `CCOc1ccc(Oc2ccc(-c3nnc(-c4ccccc4)o3)cc2[N+](=O)[O-])cc1`: the AC50 under setting [1] is 10 µM [falling, partial curve].
With `Cn1c(SCC(=O)c2ccc3c(c2)OCCO3)nnc1C1CC1`, the AC50 under setting [1] was 29.1 µM [falling, single point].
Take `Cc1cccc(NC(=O)c2ccc3c(=O)n(CC4CCCO4)c(=S)[nH]c3c2)c1` (configuration not stated): the AC50 under setting [1] was 12.6 µM [falling, single point].
On to `Cc1ccc(NC(=O)c2cccc(S(=O)(=O)N3CCCCC3)c2)cc1`, for which the AC50 under setting [1] was 7.94 µM [falling, partial curve, poor fit].
The same measure, in the same setting: under `CC(C)N1C(=O)S/C(=C/c2ccc3c(c2)n(C)c(=O)n3C)C1=O` stands 0.282 µM [rising, full curve, poor fit]; under `CC1CCN(C(=O)CNC(=O)Cc2ccccc2)CC1`, 35.5 µM [falling, single point].
On the same count and under the same terms, under `COc1ccc(-n2[nH]c(C)cc2=O)cc1` stands 3.55 µM [rising, partial curve, poor fit]; under `NC(=O)c1ccsc1NC(=O)CSc1ccccc1F`, 11.6 µM [falling, partial curve, poor fit]; under `COc1ccc(N2CCN(C(CNC(=O)C(C)(C)C)c3ccco3)CC2)cc1` (configuration not stated), 3.98 µM [falling, full curve, poor fit].
On the same count and under the same terms, under `COc1ccc(C(=O)NNC(=O)C2(C)CC2(Br)Br)cc1` (configuration not stated) stands 3.98 µM [falling, partial curve, poor fit]; under `CC1=NN(C(=O)c2ccccc2F)C(O)(c2ccc(Cl)cc2)C1` (configuration not stated), 8.91 µM [falling, partial curve, poor fit].
With `CCCn1c(-c2ccc(F)cc2)n[nH]c1=S`, the concentration at half-maximal activity (AC50) reads like this: under setting [1], 10 µM [falling, partial curve, poor fit]; under setting [2], 35.5 µM [falling, single point].
Turning to `O=C1N/C(=C/c2ccc(N3CCOCC3)o2)C(=O)N1c1cccc(Cl)c1`, the concentration at half-maximal activity (AC50) is, setting by setting: under setting [1], 11.2 µM [falling, partial curve]; under setting [2], 3.16 µM [falling, partial curve, poor fit].
Turning to `CCN(CC)c1ccc(/C=N/Nc2nc(C)cc(C)n2)c(O)c1`, under setting [1], the AC50 is 29.1 µM [falling, single point].
In the case of `COc1ccc(C(=O)C2CCCN(C(=O)c3cc4nc(C)cc(C)n4n3)C2)cc1F` (configuration not stated), the AC50 under setting [1] is 31.6 µM [rising, single point].
Same read-out and setting: under `COc1ccc(NC(=O)CN(C)C(=O)c2cn(-c3ccccc3)nc2-c2ccc(OC)cc2)cc1` stands 9.2 µM [rising, partial curve]; under `O=C(NCc1ccc2c(c1)OCO2)c1nc(S(=O)(=O)Cc2ccccc2)ncc1Cl`, 15.8 µM [falling, single point].
The same measure, in the same setting: under `O=C(Nc1ccc(F)cc1)c1oc2ccccc2c1NC(=O)C1CCCC1` stands 1 µM [falling, partial curve, poor fit].
On to `COc1ccc(CCNC(=O)C(=O)NCC2CCCO2)cc1` (configuration not stated), for which the AC50 under setting [1] was 2.06 µM [rising, partial curve, poor fit].
Take `CCNc1nc(NC(C)C)nc(N(C#N)CCOc2ccccc2)n1`: the AC50 under setting [1] was 29.1 µM [falling, single point].
For `CCOC(=O)C1=C(C)C(c2ccc(OC)cc2OC)NC(=O)N1` (configuration not stated), under setting [1], the AC50 was 1.3 µM [rising, full curve, poor fit].
